Results: publication doi:10.1101/2024.02.14.580290
These are yes or no findings as the source states them, for the method shown. Binding seen in cells or lysates may run through a third protein. These calls come from enrichment with a bait or labelling near it, and not all partners need be listed.

Protein sequences, listed by entry. Tags and fused reporters are not part of them. Lines headed by an entry give the natural chain unless they say otherwise; changes in a name come on top.
UniProt Q5W0Z9: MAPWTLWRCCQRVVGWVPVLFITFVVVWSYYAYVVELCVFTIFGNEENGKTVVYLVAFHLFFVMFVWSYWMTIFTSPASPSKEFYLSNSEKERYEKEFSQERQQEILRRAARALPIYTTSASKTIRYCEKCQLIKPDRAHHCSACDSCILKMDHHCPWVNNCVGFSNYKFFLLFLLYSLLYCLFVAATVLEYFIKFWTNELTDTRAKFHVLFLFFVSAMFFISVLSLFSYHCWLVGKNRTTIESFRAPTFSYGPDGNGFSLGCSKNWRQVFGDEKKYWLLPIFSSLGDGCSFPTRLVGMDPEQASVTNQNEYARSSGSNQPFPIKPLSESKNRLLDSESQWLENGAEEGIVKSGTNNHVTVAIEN

Target: DHHC20 (DHHC20-linker-TEV-TwinStrep) (UniProt Q5W0Z9)
Assay: affinity purification with mass spectrometry

binding	Binder
binds	Linker for activation of T cells (LAT) (protein, UniProt O43561 1-262) MEEAILVPCVLGLLLLPILAMLMALCVHCHRLPGSYDSTSSDSLYPRGIQFKRPHTVAPWPPAYPPVTSYPPLSQPDLLPIPRSPQPLGGSHRTPSSRRDSDGANSVASYENEGASGIRGAQAGWGVWGPSWTRLTPVSLPPEPACEDADEDEDDYHNPGYLVVLPDSTPATSTAAPSAPALSTPGIRDSAFSMESIDDYVNVPESGESAEASLDGSREYVNVSQELHPGAAKTEPAALSSQEAEEVEEEGAPDYENLQELN
binds	ICAM-2 (protein, UniProt P13598 25-275) KVFEVHVRPKKLAVEPKGSLEVNCSTTCNQPEVGGLETSLDKILLDEQAQWKHYLVSNISHDTVLQCHFTCSGKQESMNSNVSVYQPPRQVILTLQPTLVAVGKSFTIECRVPTVEPLDSLTLFLFRGNETLHYETFGKAAPAPQEATATFNSTADREDGHRNFSCLAVLDLMSRGGNIFHKHSAPKMLEIYEPVSDSQMVIIVTVVSVLLSLFVTSVLLCFIFGQHLRQQRMGTYGVRAAWRRLPQAFRP
